Assay results from PubChem BioAssay AID720504 (National Center for Advancing Translational Sciences (NCATS), 2013).
Out of some 360,000 compounds screened, about 10,000 (2.8%) were called active. The shares of active, inactive and inconclusive entries below differ from those in the screen. Calls follow the shape of the dose curve; as a rule, active = well fitted inhibition curve with a large enough effect; inconclusive = small, poorly fitted or top-dose-only effect; inactive = flat fitted curve, though single readings scatter. A potency beside an inconclusive call is a rough fit, not a confirmed value.

Sequences of proteins named here, by UniProt entry; tags and fusion partners are left off.
UniProt P53350, whole entry, looked up: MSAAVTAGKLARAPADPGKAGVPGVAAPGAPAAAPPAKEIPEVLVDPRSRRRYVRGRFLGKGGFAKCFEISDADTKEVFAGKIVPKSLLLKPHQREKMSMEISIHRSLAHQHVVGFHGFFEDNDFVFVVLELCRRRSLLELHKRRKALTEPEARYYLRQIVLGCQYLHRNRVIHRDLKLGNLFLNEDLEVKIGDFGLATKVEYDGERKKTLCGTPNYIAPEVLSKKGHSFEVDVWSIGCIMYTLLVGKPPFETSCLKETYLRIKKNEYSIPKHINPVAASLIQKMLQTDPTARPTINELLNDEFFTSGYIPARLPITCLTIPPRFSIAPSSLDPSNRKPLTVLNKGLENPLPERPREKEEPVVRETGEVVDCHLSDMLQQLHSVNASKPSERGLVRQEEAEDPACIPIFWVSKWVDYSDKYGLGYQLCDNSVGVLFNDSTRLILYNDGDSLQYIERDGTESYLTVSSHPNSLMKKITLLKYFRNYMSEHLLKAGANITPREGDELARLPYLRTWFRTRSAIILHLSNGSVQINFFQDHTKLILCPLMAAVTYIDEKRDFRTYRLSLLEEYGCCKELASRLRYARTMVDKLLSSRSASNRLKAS

target: Serine/threonine-protein kinase PLK1 (Homo sapiens) (UniProt P53350); assay: qHTS for Inhibitors of PLK1-PDB (polo-like kinase 1 - polo-box domain): Primary Screen; conditions: Plk1 PBD binding of FITC phosphopeptide, fluorescence polarization; also: nearly all actives have a fitted effect of over 65% in size; as to max response, negative = inhibition: series mostly up to about 57 µM
% is scaled to controls: 0 for no effect and ±100 for the full control effect; potency is read from the fitted curve at half-maximal effect.

Row | Compound | Potency | max response, negative = inhibition
1 | Cc1ccc2nc(N3C(=O)C(O)=C(C(=O)c4cc5ccccc5o4)C3c3cccs3)sc2c1 (configuration not stated) | inconclusive: 3.77 µM [inhibitor, full curve] | 
2 | CN(C)CCCN1C(=O)c2cccc3c([N+](=O)[O-])ccc(c23)C1=O |  | inconclusive: -35.2% [inhibitor]
3 | CCOc1ccc(S(=O)(=O)N2CCc3cc(OC)c(OC)cc3C2)cc1 | inconclusive: 26.7 µM [inhibitor, single point] | 
4 | CC(C)C(=O)N1CCC(n2nccc2NC(=O)CCc2ccccc2)CC1 | active: 3.36 µM | 
5 | CCOc1cc(/C=C2\C(=N)N3N=C(N4CCCCC4)SC3=NC2=O)ccc1OC(=O)c1ccco1 | inconclusive: 29.9 µM [inhibitor, single point] | 
6 | CC(O)CNCCCOc1ccccc1OCc1ccccc1 (configuration not stated) |  | inactive: -8.62%
7 | CCOC(=O)c1c(-c2ccccc2)csc1NC(=O)COc1ccc2c(C)cc(=O)oc2c1 | active: 26.7 µM | 
8 | O=C(CSc1nnc(NC2CCCCC2)s1)Nc1ccc2c(c1)C(=O)c1ccccc1C2=O |  | inactive: -23.6%
9 | Cc1cc(=O)oc2cc(OC(=O)c3nn(C(C)C)c(=O)c4ccccc34)ccc12 | inconclusive: 16.8 µM [inhibitor, partial curve] | 
10 | COc1ccc(Br)cc1[C@H]1[C@H]2C=CC[C@@H](C)[C@@H]2C(=O)N1Cc1ccccc1 | inconclusive: 37.7 µM [inhibitor, single point] | 
11 | O=C(NCc1ccccc1)N(Cc1nc2ccccc2c(=O)[nH]1)C1CCCC1 | inconclusive: 26.7 µM [inhibitor, partial curve] | 
12 | Cc1cccc(N2C(=O)C3C4C=CC(C5CC45)C3C2=O)n1 (configuration not stated) |  | inactive: 0.584%
13 | COc1ccc([C@H]2CC(=O)C[C@@H](CCn3cc(-c4ccc(F)cc4)nn3)O2)cc1 |  | inactive: 2.96%
14 | CC(=O)Nc1ccc(C=NNc2ccc([N+](=O)[O-])cc2S(=O)(=O)Nc2ccccc2C(=O)O)cc1 | inconclusive: 29.9 µM [inhibitor, single point] | 
15 | O=C(CS(=O)CC(=O)Nc1cccnc1)Nc1ccc(F)cc1 (configuration not stated) |  | inactive: -10.4%
16 | O=S(=O)(Nc1ccc(Cc2ccncc2)cc1)c1ccc(Cl)s1 | inconclusive: 29.9 µM [inhibitor, single point] | 
17 | CC1(C(=O)O)CCCN(C(=O)c2cc3ccccc3s2)C1 (configuration not stated) |  | inactive: -5.55%
18 | Cc1ccccc1NC(=O)c1sc2nc(N3CCOCC3)c3c(c2c1N)CCCC3 | inconclusive: 16.8 µM [inhibitor, partial curve] | 
19 | CCc1c(C)nc2ccc(Br)cc2c1SCCC#N | inconclusive: 15 µM [inhibitor, partial curve] | 
20 | COc1ccc(C(=O)COC(=O)C2COc3ccccc3O2)cc1F (configuration not stated) |  | inactive: -18.2%
21 | O=C(NN1C(=O)/C(=C/C=C/c2ccccc2)SC1=S)c1ccncc1 |  | inconclusive: -30.3% [inhibitor]
22 | CC(=O)Oc1cc2oc(=O)c3c(c2cc1Cl)CCC3 | active: 5.97 µM | 
23 | CC(C)CSC1=NSC2=NC(=O)/C(=C\c3cccs3)C(=N)N12 | inconclusive: 29.9 µM [inhibitor, single point] | 
24 | CC(Sc1nnc(N)s1)C(=O)NNC(=O)c1cccc(Cl)c1 (configuration not stated) |  | inactive: -3.86%

Row | Compound | Potency | max response, negative = inhibition
25 | CCOC(=O)c1c(NC(=O)Cn2cnc([N+](=O)[O-])n2)sc2c1CCCC2 | inconclusive: 29.9 µM [inhibitor, partial curve] | 
26 | O=C(C1COc2ccccc2O1)N1CCc2ccccc21 (configuration not stated) | inconclusive: 26.7 µM [inhibitor, single point] | 
27 | O=C(Cc1ccc(Cl)c(Cl)c1)Nc1cccc2ncccc12 |  | inactive: -4.15%
28 | CCc1ccc(C(=O)NNC(=O)OC)cc1 | active: 9.47 µM | 
29 | C=C(C)C(=O)OC1(C(F)(F)F)Oc2cc(C)ccc2NC1=O (configuration not stated) | inconclusive: 21.2 µM [inhibitor, partial curve] | 
30 | COc1nccnc1NS(=O)(=O)c1ccc(NC(=S)NC(=O)c2cccc(F)c2)cc1 |  | inactive: -21.5%
31 | CC1(C(=O)NS(=O)(=O)c2ccc(C#N)cc2)CCN1C(=O)C1(c2ccccc2)CCCC1 (configuration not stated) |  | inactive: -3.55%
32 | Cc1cc(O)c(Sc2ccc(Cl)cc2)c(=O)[nH]1 | inconclusive: 26.7 µM [inhibitor, partial curve] | 
33 | O=[N+]([O-])c1cc(CN2CCOCC2)c2cccnc2c1O | inconclusive: 29.9 µM [inhibitor, partial curve] | 
34 | CN(C)c1ccc(C(=S)N2CCCCCC2)cc1 | inconclusive: 29.9 µM [inhibitor, partial curve] | 
35 | O=C(Nc1sc2c(c1C(=O)O)CCC2)c1cccc(Cl)c1 | inconclusive: 21.2 µM [inhibitor, partial curve] | 
36 | Cc1cccc2cc(C#N)c(SCC#N)nc12 | inconclusive: 10.6 µM [inhibitor, partial curve] | 
37 | COc1ccc(O)c(C(=O)CC(=O)c2ccc(F)cc2)c1 |  | inactive: -8.72%
38 | CC(C)n1cc(/C=N/Nc2ccc(C(=O)O)cc2)c2ccccc21 | inconclusive: 23.8 µM [inhibitor, single point] | 
39 | Cc1ccc(NC(=S)NC(=O)Cc2ccccc2)c(O)c1 |  | inactive: -4.13%
40 | O=C(CCl)N1CCN2C(=O)c3ccccc3C12c1ccc(Cl)cc1 (configuration not stated) | inconclusive: 18.9 µM [inhibitor, single point] | 
41 | C=CCn1cccc(C(=O)Nc2ccc(OCC)cc2)c1=O | active: 23.8 µM | 
42 | Cc1ccccc1Cn1c(=O)n(CC2CCC(C(=O)NCCc3ccccc3)CC2)c(=O)c2ccccc21 (configuration not stated) |  | inactive: -7.14%
43 | O=C(COc1ccccc1)Nn1cnc2ccccc21 | inconclusive: 37.7 µM [inhibitor, single point] | 
44 | Cn1cccc1C(=S)N1CCOCC1 | inconclusive: 26.7 µM [inhibitor, single point] | 
45 | CCN(CC)c1ccc(/C=N/N2CC(=O)NC2=S)cc1 |  | inactive: -21.4%
46 | CNC(=O)c1sc(N2N=C3/C(=C\c4ccccc4)CCCC3C2c2ccccc2)nc1C (configuration not stated) | inconclusive: 37.7 µM [inhibitor, single point] | 
47 | Cc1nnc(SC(C)C(=O)Nc2c(C)n(C)n(-c3ccccc3)c2=O)n1N (configuration not stated) | inconclusive: 26.7 µM [inhibitor, single point] | 
48 | N#CC1=C(N)Oc2[nH]c(=S)[nH]c(=O)c2C12C(=O)Nc1ccccc12 (configuration not stated) | active: 2.67 µM | 

Row | Compound | Potency | max response, negative = inhibition
49 | O=C(COC(=O)c1ccccc1C(=O)c1ccc(Cl)cc1)NCc1ccccc1 |  | inactive: 0.224%
50 | Cc1ccc(COc2ccccc2C(=S)N2CCCC2)cc1 | inconclusive: 18.9 µM [inhibitor, partial curve] | 
51 | CCOC(=O)Cc1csc(NC(=S)NC(=O)c2ccccc2)n1 | inconclusive: 29.9 µM [inhibitor, partial curve] | 
52 | CCCn1c(N)c(Br)c(=O)[nH]c1=O | inconclusive: 37.7 µM [inhibitor, partial curve] | 
53 | Cc1cc(-c2ccco2)n(CC(=O)O)n1 | inconclusive: 37.7 µM [inhibitor, single point] | 
54 | CC1=NOC(=O)/C1=C/c1ccc(N(C)C)cc1 | inconclusive: 2.99 µM [inhibitor, partial curve, poor fit] | 
55 | CCCOC(=S)N/C(=N\S(=O)(=O)c1ccccc1)c1ccccc1 | active: 28.2 µM | 
56 | c1coc(CNc2c3c(nc4ncnn24)CCCC3)c1 |  | inactive: -5.7%
57 | O=C(Nc1cccc2c1C(=O)NC2=O)c1ccc(S(=O)(=O)N2CCCC2)cc1 | inconclusive: 26.7 µM [inhibitor, partial curve] | 
58 | CCCn1c(SCC(=O)N(C)C2CCS(=O)(=O)C2)nc2sc3c(c2c1=O)CCC3 (configuration not stated) |  | inactive: -12.8%
59 | Cn1c(=O)c2c(-c3ccccc3)n(-c3ccc(N)cc3)cc2n(C)c1=O | inconclusive: 15 µM [inhibitor, partial curve] | 
60 | CCCCN(C)C(=O)Cc1c(OC)ccc2cc(Br)ccc12 | active: 23.8 µM | 
61 | COC(=O)CSc1nc2ccc(NC(=O)CSc3nnnn3Cc3ccccc3)cc2s1 | inconclusive: 29.9 µM [inhibitor, single point] | 
62 | CCCN1CCN(CCCNC(=O)Cn2nc(C)n3c(cc4cc(F)ccc43)c2=O)CC1 | active: 29.9 µM | 
63 | CC1CCC(NC(=O)c2[nH]c(C(F)(F)F)nc2-c2ccccc2)CC1 (configuration not stated) |  | inactive: -1.7%
64 | CCOCCn1c(=O)c2c(nc3n2CC(C)CN3Cc2ccccc2)n(C)c1=O (configuration not stated) | active: 29.9 µM | 
65 | Cc1ccc(OC2CCN(C(=O)[C@H]3O[C@@H](n4ccc(=O)[nH]c4=O)[C@H](O)[C@@H]3O)CC2)cc1 |  | inactive: -3.35%
66 | CC1=C(C)/C(=N\OS(=O)(=O)c2ccccc2)C=CC1=O | inconclusive: 14.1 µM [inhibitor, partial curve] | 
67 | CCSc1nc(C2CC2)cc(-c2ccco2)c1C#N | inconclusive: 23.8 µM [inhibitor, partial curve] | 
68 | O=C(O)CNS(=O)(=O)c1cccc(Cl)c1 | inconclusive: 23.8 µM [inhibitor, single point] | 
69 | COCCOC(=O)c1c(NC(=O)CN2CCc3ccccc32)sc(C(N)=O)c1C |  | inactive: 2.76%
70 | O=S(=O)(c1c(F)cccc1F)N1CCN(Cc2c(O)ccc3ccccc23)CC1 |  | inconclusive: -30.1% [inhibitor]
71 | O=C(NCc1ccc2c(c1)OCO2)C1CC(=O)N(c2ccc(O)cc2)C1 (configuration not stated) | inconclusive: 29.9 µM [inhibitor, single point] | 
72 | Cc1ccccc1OCC(=O)Nc1cccc(Cl)c1C |  | inactive: -0.0924%

Part of the list above in a different format:
Row	Compound	Potency	max response, negative = inhibition
66	CC1=C(C)/C(=N\OS(=O)(=O)c2ccccc2)C=CC1=O	inconclusive: 14.1 µM [inhibitor, partial curve]	
67	CCSc1nc(C2CC2)cc(-c2ccco2)c1C#N	inconclusive: 23.8 µM [inhibitor, partial curve]	
